# Source: PubChem BioAssay AID652 (University of Pittsburgh Molecular Library Screening Center, 2007)
# The other results are listed elsewhere or left out.
# Target: Gag-Pol polyprotein (Human immunodeficiency virus type 1 group M subtype B (isolate HXB2)) (UniProt P04585)
# Experiment: concentration-response of HIV-1 RNase H blockers – biochemical, probe assessment, dose response (AID 652)
# Details: HIV-1 RT RNase H enzymatic assay, at 50 µM, stronger effect = higher value
compound,measurement,value
O=P(Nc1nccs1)(c1ccccc1)c1nc2ccccc2s1 (stereo unspecified),inhibition,93.2%
